Results are given in words; binding and its absence hold for the method and conditions named. A result given as binding can be weak or reduced; the word gives no strength.
Target: T1, Cjun KEKE motif peptide (canine), residues 84–105, biotinylated (canine)
T1 sequence (peptide, biotin on the N-terminus (peptides for affinity chromatography)): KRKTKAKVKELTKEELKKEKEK
Test: pull-down; affinity chromatography: biotinylated canine KEKE peptide on streptavidin–agarose, purified RyR1 or RyR2; both purified

With RyR2 purified from sheep heart the binding was “binds”.

Reference: article PMC4342579, “A new cytoplasmic interaction between junctin and ryanodine receptor Ca^2+ release channels” (Journal of Cell Science, 2015)
